Data taken from patent US10562947B2 (MOERAE MATRIX, INC., priority 2011, dated 2020).
Plain letter strings leave the end groups untold.

Test: general procedure: Fmoc solid-phase peptide synthesis; Fmoc-Ala-Wang Resin; HOBt/DIC; recoupling by symmetrical anhydride (DIC)
Settings: acetate salt

YARAAARQARAKALARQLGVAA
step yield (purification step, purification and lyophilization steps): 50-55% | crude mass (whole synthesis): approximately 1250 grams
